These are yes or no findings as the source states them, for the method shown. In cells and extracts the contact can be indirect. Some entries that bind do so weakly or less than the wild type. Tags and fused reporters may be left off the sequences shown.
Target: T1, dGars::EGFP (Drosophila glycyl-tRNA synthetase with a C-terminal 2xTY1-EGFP-3xFLAG tag) (Drosophila) (UniProt Q9VUK8)
T1 sequence: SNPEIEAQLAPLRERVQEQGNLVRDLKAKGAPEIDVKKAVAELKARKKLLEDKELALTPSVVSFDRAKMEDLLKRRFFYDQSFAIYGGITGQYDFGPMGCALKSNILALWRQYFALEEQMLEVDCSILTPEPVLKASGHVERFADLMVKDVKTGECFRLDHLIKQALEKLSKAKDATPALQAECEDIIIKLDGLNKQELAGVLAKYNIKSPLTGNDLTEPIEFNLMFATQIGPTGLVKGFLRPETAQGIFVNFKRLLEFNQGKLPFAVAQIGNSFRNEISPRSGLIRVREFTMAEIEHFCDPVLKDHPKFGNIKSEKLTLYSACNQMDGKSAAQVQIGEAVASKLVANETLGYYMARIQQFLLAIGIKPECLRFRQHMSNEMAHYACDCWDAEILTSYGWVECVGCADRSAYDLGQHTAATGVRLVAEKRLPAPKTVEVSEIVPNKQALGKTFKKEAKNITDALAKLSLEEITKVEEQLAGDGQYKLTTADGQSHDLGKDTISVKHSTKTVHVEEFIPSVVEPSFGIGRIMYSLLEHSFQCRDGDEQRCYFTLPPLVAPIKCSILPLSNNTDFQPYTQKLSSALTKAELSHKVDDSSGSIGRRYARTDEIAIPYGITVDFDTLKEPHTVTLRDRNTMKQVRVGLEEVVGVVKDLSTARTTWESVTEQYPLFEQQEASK
Assay: co-IP; immunoprecipitation of dGars::EGFP with GFP-Trap (Chromotek gtm-20) from 40 CNSs of dGars::EGFP BAC transgenic third instar larvae expressing WT or mutant human GARS in neurons (nsyb-GAL4)

binding: binds
B1: human glycyl-tRNA synthetase, wild type (GARS_WT) (enzyme, UniProt P41250 37-739)
chain: SAASCPPISLPAAASRSSMDGAGAEEVLAPLRLAVRQQGDLVRKLKEDKAPQVDVDKAVAELKARKRVLEAKELALQPKDDIVDRAKMEDTLKRRFFYDQAFAIYGGVSGLYDFGPVGCALKNNIIQTWRQHFIQEEQILEIDCTMLTPEPVLKTSGHVDKFADFMVKDVKNGECFRADHLLKAHLQKLMSDKKCSVEKKSEMESVLAQLDNYGQQELADLFVNYNVKSPITGNDLSPPVSFNLMFKTFIGPGGNMPGYLRPETAQGIFLNFKRLLEFNQGKLPFAAAQIGNSFRNEISPRSGLIRVREFTMAEIEHFVDPSEKDHPKFQNVADLHLYLYSAKAQVSGQSARKMRLGDAVEQGVINNTVLGYFIGRIYLYLTKVGISPDKLRFRQHMENEMAHYACDCWDAESKTSYGWIEIVGCADRSCYDLSCHARATKVPLVAEKPLKEPKTVNVVQFEPSKGAIGKAYKKDAKLVMEYLAICDECYITEMEMLLNEKGEFTIETEGKTFQLTKDMINVKRFQKTLYVEEVVPNVIEPSFGLGRIMYTVFEHTFHVREGDEQRTFFSFPAVVAPFKCSVLPLSQNQEFMPFVKELSEALTRHGVSHKVDDSSGSIGRRYARTDEIGVAFGVTIDFDTVNKTPHTATLRDRDSMRQIRAEISELPSIVQDLANGNITWADVEARYPLFEGQETGKKETIEE

Source: paper PMC4506996
